This test has as its target RSV nucleoprotein (N), full length, residues 1–391 (respiratory syncytial virus (RSV)) (UniProt P03418). Nature of the test: condition: only after addition of RNA oligo Tr45 (20 uM RNA to 13.3 uM N^0–PNTD); SEC; purified N^0–PNTD (13.3 uM) incubated with RNA oligo Tr45 (20 uM), 1 h, room temperature, 20 mM HEPES pH 7.4, 200 mM NaCl; Superdex 200 Increase 10/300 GL; SDS-PAGE of peak 0; both purified.

Sequences of proteins named here, by UniProt entry; tags and fusion partners are left off. Residues count along the entry.
UniProt P03418: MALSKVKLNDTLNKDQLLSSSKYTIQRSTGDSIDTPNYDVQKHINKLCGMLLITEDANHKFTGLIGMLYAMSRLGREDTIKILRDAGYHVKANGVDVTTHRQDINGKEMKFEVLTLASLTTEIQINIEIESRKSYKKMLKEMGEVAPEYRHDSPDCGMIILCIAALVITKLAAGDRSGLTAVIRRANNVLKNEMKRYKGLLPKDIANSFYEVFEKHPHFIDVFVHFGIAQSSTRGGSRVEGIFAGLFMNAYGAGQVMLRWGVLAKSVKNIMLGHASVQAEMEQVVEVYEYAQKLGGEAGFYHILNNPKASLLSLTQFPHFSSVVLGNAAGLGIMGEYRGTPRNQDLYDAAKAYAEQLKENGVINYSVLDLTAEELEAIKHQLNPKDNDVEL
UniProt P03421, residues 1-126: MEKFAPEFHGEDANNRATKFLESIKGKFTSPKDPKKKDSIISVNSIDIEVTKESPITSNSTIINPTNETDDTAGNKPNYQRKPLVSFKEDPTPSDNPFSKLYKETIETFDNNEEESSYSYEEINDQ

Results are given in words; binding and its absence hold for the method and conditions named.

“N-terminal domain of the RSV phosphoprotein (PNTD), residues 1–126 (from UniProt P03421 1-126) (domain or fragment)”: the binding result is given as “no binding”.
